# Results are given in words; binding and its absence hold for the method and conditions named. For some of these results: Binding can be weak; no strength is given. Sequences can lack the tags named with a protein. For some of these results: Binding seen in cells or lysates may run through a third protein.
# The chains behind the UniProt entries cited, without tags or fusion partners. Where a name states a change or a piece, a line headed by the entry shows the natural chain unless it says otherwise.
# UniProt Q9FLW0: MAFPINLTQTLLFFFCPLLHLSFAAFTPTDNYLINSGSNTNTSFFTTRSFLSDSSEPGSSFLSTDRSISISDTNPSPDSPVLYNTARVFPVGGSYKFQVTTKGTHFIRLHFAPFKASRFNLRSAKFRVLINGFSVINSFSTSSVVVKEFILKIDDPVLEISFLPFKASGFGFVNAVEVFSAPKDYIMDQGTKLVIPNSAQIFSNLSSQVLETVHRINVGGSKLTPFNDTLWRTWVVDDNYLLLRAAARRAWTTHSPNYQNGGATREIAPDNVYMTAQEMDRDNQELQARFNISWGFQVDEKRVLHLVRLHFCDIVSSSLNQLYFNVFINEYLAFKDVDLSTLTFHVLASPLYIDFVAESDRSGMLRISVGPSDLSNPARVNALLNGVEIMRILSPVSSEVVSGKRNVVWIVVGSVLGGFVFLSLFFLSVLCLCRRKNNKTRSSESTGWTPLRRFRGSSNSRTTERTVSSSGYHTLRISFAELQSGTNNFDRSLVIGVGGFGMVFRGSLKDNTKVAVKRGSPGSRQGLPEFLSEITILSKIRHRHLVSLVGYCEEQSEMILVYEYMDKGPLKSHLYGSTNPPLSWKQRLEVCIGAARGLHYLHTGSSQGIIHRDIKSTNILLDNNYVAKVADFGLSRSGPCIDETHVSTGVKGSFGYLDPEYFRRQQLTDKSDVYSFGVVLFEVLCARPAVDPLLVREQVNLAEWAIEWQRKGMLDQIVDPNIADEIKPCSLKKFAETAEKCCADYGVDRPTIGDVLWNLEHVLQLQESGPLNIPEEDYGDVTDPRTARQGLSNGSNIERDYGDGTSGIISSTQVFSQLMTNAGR
# UniProt Q9SR05: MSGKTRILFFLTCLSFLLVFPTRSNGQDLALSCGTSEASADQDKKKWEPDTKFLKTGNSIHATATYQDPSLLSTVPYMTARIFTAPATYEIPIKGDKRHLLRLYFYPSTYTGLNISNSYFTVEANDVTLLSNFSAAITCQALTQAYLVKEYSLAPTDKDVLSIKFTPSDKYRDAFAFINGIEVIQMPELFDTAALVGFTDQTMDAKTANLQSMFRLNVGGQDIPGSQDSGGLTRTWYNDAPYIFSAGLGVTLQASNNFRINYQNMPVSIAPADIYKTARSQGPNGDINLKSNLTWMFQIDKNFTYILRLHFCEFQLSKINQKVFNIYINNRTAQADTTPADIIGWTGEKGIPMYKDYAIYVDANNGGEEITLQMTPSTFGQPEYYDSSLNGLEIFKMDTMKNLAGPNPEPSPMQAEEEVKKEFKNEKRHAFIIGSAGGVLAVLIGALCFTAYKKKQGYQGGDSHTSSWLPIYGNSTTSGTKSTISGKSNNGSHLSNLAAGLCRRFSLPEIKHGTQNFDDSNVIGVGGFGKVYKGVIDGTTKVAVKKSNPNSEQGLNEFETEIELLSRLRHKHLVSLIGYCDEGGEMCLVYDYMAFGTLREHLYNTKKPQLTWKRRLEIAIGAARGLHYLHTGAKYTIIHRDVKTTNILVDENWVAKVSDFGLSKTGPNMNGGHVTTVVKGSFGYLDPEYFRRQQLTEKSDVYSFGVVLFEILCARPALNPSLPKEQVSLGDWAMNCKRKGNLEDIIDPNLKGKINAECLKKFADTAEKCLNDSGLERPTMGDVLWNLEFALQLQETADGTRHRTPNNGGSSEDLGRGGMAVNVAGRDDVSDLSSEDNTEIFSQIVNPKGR
# B1: full-length EBP1 fused to the GAL4 DNA-activating domain (protein, UniProt Q96327-3 1-401)
# chain: MSSDDERDEKELSLTSPEVVTKYKSAAEIVNKALQVVLAECKPKAKIVDICEKGDSFIKEQTASMYKNSKKKIERGVAFPTCISVNNTVGHFSPLASDESVLEDGDMVKIDMGCHIDGFIALVGHTHVLQEGPLSGRKADVIAAANTAADVALRLVRPGKKNTDVTEAIQKVAAAYDCKIVEGVLSHQLKQHVIDGNKVVLSVSSPETTVDEVEFEENEVYAIDIVASTGDGKPKLLDEKQTTIYKKDESVNYQLKMKASRFIISEIKQNFPRMPFTARSLEEKRARLGLVECVNHGHLQPYPVLYEKPGSCRFGFLPGDFVAQIKFTVLLMPNGSDRITSHTLQELPKKTIEDPEIKGWLALGIKKKKGGGKKKKAQKAGEKGEASTEAEPMDASSNAQE
# B2: EBP1–C-terminal cyan fluorescent protein (cCFP) (protein, UniProt Q96327-3 1-401)
# chain: B1 chain
# Tests used:
# [1] = biological target: CURVY 1 (CVY1) in the BD vector (Arabidopsis); assay: two-hybrid; directed test: EBP1 in the AD vector (pGADT7), FER-KD or CrRLK1L members in the BD vector (pGBKT7), yeast strain AH109; SD/-Ade/-Leu/-His medium with 20 mM 3-AT
# [2] = biological target: AT5G24010 in the BD vector (Arabidopsis) (UniProt Q9FLW0); assay: as above
# [3] = biological target: ANXUR 1 (ANX1) in the BD vector (Arabidopsis) (UniProt Q9SR05); assay: as above
# [4] = biological target: HERCULES2 (HERK2)-nVenus (Arabidopsis); assay: split reporter; BiFC of cCFP and nVenus fusions in Arabidopsis protoplasts, 16 hours at 23°C in the dark; FM4-64 marks the plasma membrane
Binder,binding [1],binding [2],binding [3],binding [4]
B1,binds,binds,binds,
B2,,,,no binding
